Results: publication PMC9199852
These are yes or no findings as the source states them, for the method shown. For some of these results: A result given as binding can be weak or reduced; the word gives no strength.

Legend:
Assay in all cases: two-hybrid; Matchmaker Gold Yeast Two-Hybrid System, yeast strain Y2HGold; TaPR1-4 and its variants in pGBKT7 as bait, TaTLP1 in pGADT7 as prey; growth and blue colour on SD/-Trp-Leu-His-Ade with X-α-Gal and aureobasidin A
[1] = target: TaPR1-4 K117A (Triticum aestivum (wheat)) (UniProt Q94F73)
[2] = target: TaPR1-4 (Triticum aestivum (wheat)) (UniProt Q94F73)
[3] = target: TaPR1-4 V118S (Triticum aestivum (wheat)) (UniProt Q94F73)
[4] = target: CΔ113–164-TaPR1-4 (Triticum aestivum (wheat)) (UniProt Q94F73)
[5] = target: TaPR1-4 G116A (Triticum aestivum (wheat)) (UniProt Q94F73)
[6] = target: CΔ128–164-TaPR1-4 (+αIV) (Triticum aestivum (wheat)) (UniProt Q94F73)
[7] = target: CΔ143–164-TaPR1-4 (Triticum aestivum (wheat)) (UniProt Q94F73)
[8] = target: TaPR1-4 A114S (Triticum aestivum (wheat)) (UniProt Q94F73)
[9] = target: CΔ119–164-TaPR1-4 (-αIV) (Triticum aestivum (wheat)) (UniProt Q94F73)
[10] = target: TaPR1-4 A115R (Triticum aestivum (wheat)) (UniProt Q94F73)

binding [1]: binds | binding [2]: binds | binding [3]: binds | binding [4]: no binding | binding [5]: binds | binding [6]: binds | binding [7]: binds | binding [8]: binds | binding [9]: binds weakly | binding [10]: binds
Substance: TaTLP1 (from UniProt A0A075TS47)
